The source of these data is article PMC13143212.

Chains of the proteins cited; added tags and fusions are not shown. Lines headed by an entry give the natural chain unless they say otherwise; changes in a name come on top. A line that says so, or that is headed by a name, gives the form on record, which may keep a tag or linker. Residues count along the entry.
STIM2.2 fused to YFPn (Q9P246, residues 15-746): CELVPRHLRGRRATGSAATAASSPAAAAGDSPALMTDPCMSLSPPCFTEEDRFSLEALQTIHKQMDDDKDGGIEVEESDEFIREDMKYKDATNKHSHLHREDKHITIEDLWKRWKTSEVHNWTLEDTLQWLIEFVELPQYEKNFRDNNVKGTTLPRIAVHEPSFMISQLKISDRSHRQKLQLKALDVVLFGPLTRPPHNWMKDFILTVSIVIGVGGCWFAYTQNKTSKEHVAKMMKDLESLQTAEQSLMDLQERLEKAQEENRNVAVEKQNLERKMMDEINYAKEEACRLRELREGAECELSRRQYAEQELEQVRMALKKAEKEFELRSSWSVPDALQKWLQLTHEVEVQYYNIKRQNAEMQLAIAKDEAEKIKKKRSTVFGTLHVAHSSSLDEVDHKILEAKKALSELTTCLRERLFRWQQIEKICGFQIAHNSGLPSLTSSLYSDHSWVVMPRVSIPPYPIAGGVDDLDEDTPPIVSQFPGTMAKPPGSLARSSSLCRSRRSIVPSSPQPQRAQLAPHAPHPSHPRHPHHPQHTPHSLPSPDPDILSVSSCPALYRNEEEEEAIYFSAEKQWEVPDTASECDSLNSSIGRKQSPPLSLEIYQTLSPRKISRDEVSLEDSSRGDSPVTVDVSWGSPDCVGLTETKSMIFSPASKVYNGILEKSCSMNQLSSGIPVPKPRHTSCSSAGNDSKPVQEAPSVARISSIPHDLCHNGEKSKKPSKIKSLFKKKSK
HA-STIM2.3 fused to YFPc (Q9P246, form named): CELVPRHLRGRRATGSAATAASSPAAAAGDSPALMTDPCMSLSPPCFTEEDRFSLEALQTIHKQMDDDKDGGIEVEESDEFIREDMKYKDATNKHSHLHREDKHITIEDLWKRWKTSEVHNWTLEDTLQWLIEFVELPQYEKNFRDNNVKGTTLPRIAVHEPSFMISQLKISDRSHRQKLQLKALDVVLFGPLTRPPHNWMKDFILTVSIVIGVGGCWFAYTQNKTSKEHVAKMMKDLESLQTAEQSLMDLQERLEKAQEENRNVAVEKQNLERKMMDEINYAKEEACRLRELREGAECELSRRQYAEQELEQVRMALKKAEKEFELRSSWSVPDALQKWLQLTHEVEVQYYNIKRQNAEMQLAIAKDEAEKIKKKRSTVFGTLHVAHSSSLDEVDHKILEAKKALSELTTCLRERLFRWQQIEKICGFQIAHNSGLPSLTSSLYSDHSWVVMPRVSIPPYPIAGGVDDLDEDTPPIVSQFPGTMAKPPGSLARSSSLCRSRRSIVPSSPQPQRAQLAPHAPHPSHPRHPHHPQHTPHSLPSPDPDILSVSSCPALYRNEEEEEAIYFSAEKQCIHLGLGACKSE
UniProt Q13586, residues 23-685: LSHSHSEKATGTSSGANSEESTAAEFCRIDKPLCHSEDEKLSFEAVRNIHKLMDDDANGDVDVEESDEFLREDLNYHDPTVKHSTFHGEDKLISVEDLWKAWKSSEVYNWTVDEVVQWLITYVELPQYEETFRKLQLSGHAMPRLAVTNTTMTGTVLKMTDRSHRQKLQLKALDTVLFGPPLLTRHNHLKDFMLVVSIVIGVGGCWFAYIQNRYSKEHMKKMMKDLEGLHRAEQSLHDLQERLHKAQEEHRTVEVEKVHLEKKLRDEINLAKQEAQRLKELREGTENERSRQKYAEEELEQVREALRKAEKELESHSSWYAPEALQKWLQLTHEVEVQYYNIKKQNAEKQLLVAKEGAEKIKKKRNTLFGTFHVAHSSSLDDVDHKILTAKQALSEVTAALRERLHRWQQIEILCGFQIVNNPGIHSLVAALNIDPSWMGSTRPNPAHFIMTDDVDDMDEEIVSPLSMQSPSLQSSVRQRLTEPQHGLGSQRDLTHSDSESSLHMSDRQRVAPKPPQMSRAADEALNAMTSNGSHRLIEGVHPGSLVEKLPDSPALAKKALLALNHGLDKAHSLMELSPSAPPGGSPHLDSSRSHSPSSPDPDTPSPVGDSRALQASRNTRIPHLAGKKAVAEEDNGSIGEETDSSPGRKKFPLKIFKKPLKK
UniProt Q96SN7: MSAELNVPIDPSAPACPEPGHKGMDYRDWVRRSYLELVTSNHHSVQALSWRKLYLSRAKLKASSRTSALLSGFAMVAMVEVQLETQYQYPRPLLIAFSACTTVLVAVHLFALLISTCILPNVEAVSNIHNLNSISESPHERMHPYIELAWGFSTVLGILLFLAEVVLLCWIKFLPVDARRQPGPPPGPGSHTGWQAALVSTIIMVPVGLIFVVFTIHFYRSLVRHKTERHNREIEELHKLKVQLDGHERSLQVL

These are yes or no findings as the source states them, for the method shown. Binding seen in cells or lysates may run through a third protein. Some binding calls cover weakened binding; strength is not graded here.

The experiment concerns the target HA-STIM2.3 fused to YFPc (human) (UniProt Q9P246). As to the kind of experiment: split reporter; BiFC in HEK STIM1/2 DKO cells: HA-STIM2 variant-YFPc as bait, protein of interest-YFPn as prey, equimolar DNA; 1 µM TG for 10 min 24 h after transfection; percent YFP-positive viable cells by flow cytometry. A general note: A flow cytometer gives signals particle by particle.
For the substance “STIM2.2 fused to YFPn (from UniProt Q9P246-1 15-746)”, the binding result is on record as “binds”.
As for “STIM1 fused to YFPn (from UniProt Q13586 23-685)”, the binding entry was “binds”.
Consider “ORAI2 fused to YFPn (from UniProt Q96SN7 1-254)”, for which the binding result is “binds”.
